Experimental data taken from the supplement of paper PMC12024529.
Where a name gives a salt, the structure may show the parent alone. The list shows a part of the results. Baselines shift from plate to plate; read single values as rough.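 Wild-type or misfolding-prone missense mutant B-domain-deleted factor VIII, fused to Gaussia luciferase, is stably expressed in HEK293 lines. Each score is (mean triplicate-well luminescence minus DMSO mean) divided by DMSO standard deviation. Hits score at least 2; lower scores could stem from decreased secretion or poorer cell viability.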

system: HEK293 p.N1941S BDD-FVIII-Gluc; test: secreted FVIII-Gluc luciferase Z-score vs DMSO control; higher = more FVIII-Gluc secretion; settings: 5 µM; 24 h

Secreted FVIII-Gluc luciferase Z-score, active:
CC(C)(Oc1ccc(CCNC(=O)c2ccc(Cl)cc2)cc1)C(=O)O [Bezafibrate] 3.07

Secreted FVIII-Gluc luciferase Z-score, inactive:
CC(NC(=O)Cc1cc(F)cc(F)c1)C(=O)NC(C(=O)OC(C)(C)C)c1ccccc1 (stereo not drawn) -2.01
CC(=O)OCC(=O)[C@H]1CC[C@H]2[C@@H]3CCC4=CC(=O)CC[C@]4(C)[C@H]3CC[C@]12C [Deoxycorticosterone acetate] 1.1
CC(C)NCC(O)c1ccc(O)c(O)c1 (stereo not drawn) [Isoprenaline hydrochloride] 0.0955
CN(C/C=C/C#CC(C)(C)C)Cc1cccc2ccccc12 [Terbinafine hydrochloride (Lamisil)] -0.195
Cc1cc(NS(=O)(=O)c2ccc(N)cc2)no1 [Sulfamethoxazole] 0.605
O=C(C1CCCCC1)N1CC(=O)N2CCc3ccccc3C2C1 (stereo not drawn) [Praziquantel (Biltricide)] 0.592
CCCCOc1cc(C(=O)OCCN(CC)CC)ccc1N [Oxybuprocaine HCl] 0.62
CCCCNC(=O)NS(=O)(=O)c1ccc(C)cc1 [Tolbutamide] -0.418
O=C(CCNNC(=O)c1ccncc1)NCc1ccccc1 [Nialamide] 1.24
CO[C@H]1/C=C/O[C@@]2(C)Oc3c(C)c(O)c4c(O)c(c5c(nc6cc(C)ccn65)c4c3C2=O)NC(=O)/C(C)=C\C=C\[C@H](C)[C@H](O)[C@@H](C)[C@@H](O)[C@@H](C)[C@H](OC(C)=O)[C@@H]1C [Rifaximin (Xifaxan)] -1.82
Nc1nc2ccc(OC(F)(F)F)cc2s1 [Riluzole (Rilutek)] 0.271
COc1ccc(C2CNC(=O)C2)cc1OC1CCCC1 (stereo not drawn) [Rolipram] -1.08
CC1(C)S[C@@H]2[C@H](NC(=O)[C@H](N)c3ccc(O)cc3)C(=O)N2[C@H]1C(=O)O [Amoxicillin sodium (Amox)] 0.37
CCOC(=O)OC(C)OC1=C(C(=O)Nc2ccccn2)N(C)S(=O)(=O)c2ccccc21 (stereo not drawn) [Ampiroxicam] -0.98
CN/C(=N\CCSCc1nc[nH]c1C)NC#N [Cimetidine (Tagamet)] -0.413
CNC(=C[N+](=O)[O-])NCCSCc1csc(CN(C)C)n1 [Nizatidine] -2.34
CC(=O)NC[C@H]1CN(c2ccc(N3CCOCC3)c(F)c2)C(=O)O1 [Linezolid (Zyvox)] 0.0669

Pulled by structure from the list above:
Secreted FVIII-Gluc luciferase Z-score, inactive:
CC1(C)S[C@@H]2[C@H](NC(=O)[C@H](N)c3ccc(O)cc3)C(=O)N2[C@H]1C(=O)O [Amoxicillin sodium (Amox)] 0.37
Cc1cc(NS(=O)(=O)c2ccc(N)cc2)no1 [Sulfamethoxazole] 0.605
